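Whole-parasite assay of Trypanosoma brucei over 72 hours; the read-out is not stated. Tested at 30 µM. Higher reads as stronger inhibition (inferred: compounds with an IC50 in retests scored well above the rest). Values scatter widely below zero; nearly all retest evidence comes from the higher of the two concentrations used. About 64,000 compounds were tested under these conditions; 1.5% (about 940) showed 50% or more at least once.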

Results are given as percent effect. The controls that fix the scale are not given in the record; negative values are as filed. This is an unselected part of the compounds tested.

structure,Percent Effect
CC(OCC1CC1)C(=O)NCCC(=O)Nc1ccccn1 (configuration not stated),-63.57
O=CO.c1cc2nccc(CC3CCCN(C4CCOCC4)CC3)c2cn1 (configuration not stated),-18.99
CCSc1cc(C(=O)N(CC(F)F)C(C)C)ccn1,-8.746
[H][C@]12CN(C(=O)c3ccc4c(c3)OCO4)CCN1C(=O)N(CCOC)C2,-12.07
CCc1nnc2n1CCN(Cc1csc(Cc3ccccc3)n1)C2,-11.42
Fc1cnc(N2CCCC3(CCN(Cc4ccco4)C3)C2)nc1.O=C(O)C(F)(F)F.O=C(O)C(F)(F)F (configuration not stated),47.52
O=C(Cc1csc(-c2ccccc2F)n1)NCc1ccc(C(=O)O)cc1,-33.74
COc1ccc(NC(=O)CCc2c(C)nc3cc(O)nn3c2C)cn1,73.91
CCn1nc(C)c(CN2CCC(c3ccc(C(=O)O)cc3)C2)c1C (configuration not stated),-22.76
CC(=O)Nc1cccc(CN2CCCC2C(=O)Nc2nccs2)c1 (configuration not stated),-3.044
N#CCCCOc1cccnc1NC(=O)Cc1ccccc1F,-9.27
COc1ccc(C2CCCN2C(=O)c2ccc(=O)n(C)c2)cc1OC (configuration not stated),-13.17
Cc1ccn(CCC(=O)NCc2ccc(C)o2)n1,-12.76
COc1cccc(C(=O)N2CCCC2c2ncc3c(n2)CCN(C)C3)c1 (configuration not stated),-6.796
O=C(C1CCOCC1)N1C[C@@H](F)[C@@H](OCc2nc3cc(F)ccc3[nH]2)C1,-9.15
N#Cc1cn[nH]c1NCc1cc(Br)ccc1O,-13.62
N#CCCN(Cc1ccco1)C(=O)C1CCCc2ccccc21 (configuration not stated),-19.69
CCNc1cc2c(nn1)CCN(C(=O)c1cc(C)n(C3CC3)c1C)C2,-22.1
O=C(NCC(=O)N1CCCCC1)c1sccc1C1CC1,-52.43
O=C(O)C(F)(F)F.[H][C@]12CCN(c3ccccn3)[C@@]1([H])CC[C@H](COCC(=O)N1CCCC1)O2,-34.45
COc1ccc(NC2CCN(C3CC3)C2=O)cn1 (configuration not stated),-5.785
COCc1nc2cc(NCc3sc(C)nc3C)ccc2o1,-32.82
CC(=O)NC1CCN(c2cc(C3CCNCC3)nc(C)n2)C1 (configuration not stated),-10.24
O=C(O)C(F)(F)F.[H][C@@]12CCN(C(=O)c3ccoc3)C[C@]1(COc1ncccc1F)CCO2,1.265
O=C(O)C(F)(F)F.[H][C@]12C[C@@H](CN(C)C)N(CC3CC3)[C@@]1([H])CCN(C(=O)c1ccoc1)C2,-22.29
Cc1ncc(CNc2ccc(C(=O)NCc3ccco3)cc2C)s1,-11.85
CCc1ccc(C(=O)N2CCC(c3nncn3CC)CC2)s1,-2.322
CC(=O)NC1CCN(c2ccnc(C3CCNCC3)c2)CC1.O=C(O)C(F)(F)F,-10.98
c1cncc(COCC2CNCc3nccn3C2)c1 (configuration not stated),-61.48
CCN(CC)C(=O)[C@@H]1C[C@H](n2cc(-c3cccc(OC)c3)nn2)CN1,-17.89
Brc1ccc(C2(NCc3noc(C4CC4)n3)CCC2)cc1,-0.9241
Cc1cnn(CC(C)NCc2ccccc2OCc2cccnc2)c1 (configuration not stated),13.66
Cc1nc(CN2CCCN(Cc3nc4c(F)cccc4[nH]3)CC2)no1,-2.899
N#Cc1cc(NC(=O)c2ccccn2)ccc1N1CCC(O)CC1,14.43
Cc1ncc(C(=O)N2CCCC(Cc3nccs3)C2)cn1 (configuration not stated),-7.859
Cc1nn(C)cc1Cn1c(=O)ccc2ccccc21,-1.07
Cc1nn(C)c(C)c1-c1ccc(=O)n(C(C)C(=O)NC2CCCCC2)n1 (configuration not stated),-17.92
O=C(C1CCCO1)N1CCC(c2nc(-c3ccccc3)n[nH]2)CC1 (configuration not stated),-55.08
CCOCC(=O)N1CCn2cc(CN(C)Cc3ccco3)nc2C1,-21.07
CC(C)c1nc(CNC2CCN(S(C)(=O)=O)CC2)cs1,-4.773
COCCn1ccc(NCc2scnc2C)n1,0.7819
Cc1nc(C)n(CC2CCCN(c3ncnc4c3CCC4)C2)n1 (configuration not stated),-41.11
CCC[C@H]1CN(S(C)(=O)=O)C[C@@H]1NC(=O)CCCn1ccnc1,-106.5
CC(C)NC(=O)c1nc2c(s1)CCCN2C(C)C,-74.99
CCN(C(=O)COc1nc(C(C)(C)C)no1)C1CC1,4.619
CCNc1cc2c(nn1)CCN(C(=O)C(C)c1c(C)noc1C)C2 (configuration not stated),-20.51
COc1cccc2[nH]cc(CCNC(=O)N3CCC[C@H]3CO)c12,-46.07
Cc1nc(NS(=O)(=O)c2cccc(F)c2C)no1,-0.1297
Cc1ccc(NC(=O)C2CCc3ccccc3N2)cc1 (configuration not stated),-78.37
[H][C@@]12CS(=O)(=O)C[C@]1([H])N(C(=O)c1cscn1)CCN2C(=O)C(C)C,-5.263
CC(C)NS(=O)(=O)c1cc(C(=O)O)cc(-n2cc3c(n2)CCC3)c1,-1.886
CC(C)n1cnnc1SCCN(C)c1ccccc1,-57.53
COCC(C)NC(=O)CN1CCC2(CC1)OCCO2 (configuration not stated),-17.71
COc1ccc2ccccc2c1CNCC1CCS(=O)(=O)C1.Cl (configuration not stated),-20.14
Cc1ccc(-c2nnc(CN3CCCC(Cn4cncn4)C3)o2)cc1 (configuration not stated),-3.45
CN1CCN(C(=O)Cn2ccc3c(Cl)cccc32)CC1,0.131
CC1c2ncc(Cn3cncn3)n2CCN1C(=O)[C@H]1CCCO1 (some centres not stated),-6.935
COc1ccc(Cl)cc1CCNC(=O)NCc1ncnn1C,-10.27
CC(C)CC(=O)Nc1cc(C(=O)N(C)C(C)C)ccc1Cl,-11.66
O=C(O)C(F)(F)F.O=C(O)C(F)(F)F.[H][C@@]12OCCN(Cc3ccc(OC)cc3)[C@@]1([H])CC[C@H]2Oc1ccccn1,-0.9383
CCOc1ccc(C(=O)n2cccn2)cc1,-16.23
CCn1c(CN2CCOC(Cn3cncn3)C2)nc2c(F)cccc21 (configuration not stated),-46.02
CC(CNC(=O)c1nc(N2CCOCC2)ncc1Cl)c1ccccc1 (configuration not stated),-17.93
Cc1noc(C)c1CN(C)C(=O)COc1cccc(C#N)c1,-7.6
O=C1CCCN1CCN1CCCC(c2ccn[nH]2)C1 (configuration not stated),5.369
CC(c1ccc(C(=O)NCCc2nc(N)cc(O)n2)o1)N1CCCCC1 (configuration not stated),-14.93
CCCNC(=O)CN1CCOC(CC)C1 (configuration not stated),-16.21
Cc1ccn(-c2ccnc(N3CCN(c4ncccn4)CC3)n2)n1,-5.365
Cc1ccccc1-c1noc(CN2CCC(c3ccn[nH]3)CC2)n1,-35.28
c1cnnc(N2CCCC(NCc3cccc4c3OCCO4)C2)c1 (configuration not stated),-22.96
[H][C@@]12CN(c3ncc(C)cn3)C[C@@]1([H])N(CC1CC1)C(=O)CO2,-12.92
Nc1cc2c(nn1)CCN(C(=O)Cc1ccc3c(c1)CCO3)C2,-15.93
Cc1ccccc1-c1cc(C(=O)NCCN2CCCS2(=O)=O)[nH]n1,-17.41
CCc1noc(CCCC(=O)N2CCCC(c3ccn[nH]3)C2)n1 (configuration not stated),-7.695
O=C(O)C(F)(F)F.[H][C@]12CCN(C(=O)c3ccncc3F)[C@@]1([H])CC[C@H](COCC(C)C)O2,-29.79
COc1ccc(-c2nc3c([nH]2)CCNC3C(=O)O)c2ccc(C)nc12 (configuration not stated),-47.95
COc1ccccc1C(=O)NC[C@H]1COCc2nc3c(C)cccc3n21,7.942
C[C@]1(O)CCN(Cc2nccs2)C[C@@H]1Oc1cccc(F)c1,6.226
O=C(O)C(F)(F)F.O=C(O)C(F)(F)F.O=C(O)C(F)(F)F.[H][C@@]12CCCO[C@]1([H])[C@H](N(C)Cc1cccnc1)CN2CC1CC1,12.34

From ChEMBL document CHEMBL3988442, “University of Dundee, Small-Polar-MMV Screening Library” (2021).